These are yes or no findings as the source states them, for the method shown. In cells and extracts the contact can be indirect. Some entries that bind do so weakly or less than the wild type.
Molecular target: T1, La related protein LARP7 (human (endogenous in HeLa)) (UniProt Q4G0J3)
T1 sequence: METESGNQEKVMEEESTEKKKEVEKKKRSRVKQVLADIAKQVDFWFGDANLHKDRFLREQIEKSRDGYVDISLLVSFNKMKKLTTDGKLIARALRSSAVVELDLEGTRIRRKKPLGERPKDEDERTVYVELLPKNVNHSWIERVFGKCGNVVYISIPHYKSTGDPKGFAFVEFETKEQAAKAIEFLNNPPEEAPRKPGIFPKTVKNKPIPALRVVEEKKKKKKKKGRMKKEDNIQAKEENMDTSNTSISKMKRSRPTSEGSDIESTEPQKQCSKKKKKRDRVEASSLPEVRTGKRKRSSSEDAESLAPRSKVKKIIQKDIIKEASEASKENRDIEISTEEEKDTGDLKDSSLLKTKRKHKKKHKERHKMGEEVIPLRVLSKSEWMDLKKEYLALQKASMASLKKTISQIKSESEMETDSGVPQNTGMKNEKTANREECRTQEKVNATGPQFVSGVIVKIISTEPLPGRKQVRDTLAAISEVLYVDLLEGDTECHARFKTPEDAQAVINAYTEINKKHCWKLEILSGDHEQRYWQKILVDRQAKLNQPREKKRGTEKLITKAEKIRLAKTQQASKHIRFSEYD
Assay: co-IP; 7SK snRNP immunoprecipitated from HeLa lysate (300 µl, 4°C, 2 hr) with affinity purified anti-LARP7 antibody covalently attached to M-270 Epoxy Dynabeads; washed in Lysis Buffer (150 mM NaCl, 0.5% NP-40); Western blot for LARP7, Cdk9, HEXIM1

Sequences of proteins named here, by UniProt entry; tags and fusion partners are left off.
UniProt O94992: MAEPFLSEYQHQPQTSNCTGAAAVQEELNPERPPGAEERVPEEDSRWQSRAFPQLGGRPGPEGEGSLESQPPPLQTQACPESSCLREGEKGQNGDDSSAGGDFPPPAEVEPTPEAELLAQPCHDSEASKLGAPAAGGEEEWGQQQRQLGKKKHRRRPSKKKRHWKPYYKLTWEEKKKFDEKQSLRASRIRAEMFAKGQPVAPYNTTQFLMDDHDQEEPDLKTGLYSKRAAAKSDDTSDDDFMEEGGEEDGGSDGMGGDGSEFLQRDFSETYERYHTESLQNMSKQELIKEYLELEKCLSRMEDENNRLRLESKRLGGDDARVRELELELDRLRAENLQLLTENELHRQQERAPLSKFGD

binding: binds
Substance: HEXIM1 (from UniProt O94992 1-359)

— paper PMC2925947
